Patent publication US8741944B2, “Anti-infective agents against intracellular pathogens” (priority 2007, dated 2014)

Assays:
SR (Leukemia) = assay: NCI DTP tumor cell line screen (SRB), SR
M14 (Melanoma) = assay: NCI DTP tumor cell line screen (SRB), M14
[1] = system: EKVX (Non-Small Cell Lung Cancer); assay: NCI DTP tumor cell line screen (SRB), EKVX
A498 (Renal Cancer) = assay: NCI DTP tumor cell line screen (SRB), A498
ACHN (Renal Cancer) = assay: NCI DTP tumor cell line screen (SRB), ACHN
MCF7 (Breast Cancer) = assay: NCI DTP tumor cell line screen (SRB), MCF7
K-562 (Leukemia) = assay: NCI DTP tumor cell line screen (SRB), K-562
SN12C (Renal Cancer) = assay: NCI DTP tumor cell line screen (SRB), SN12C
[2] = system: HOP-92 (Non-Small Cell Lung Cancer); assay: NCI DTP tumor cell line screen (SRB), HOP-92
HCT-15 (Colon Cancer) = assay: NCI DTP tumor cell line screen (SRB), HCT-15
DU-145 (Prostate Cancer) = assay: NCI DTP tumor cell line screen (SRB), DU-145
UACC-62 (Melanoma) = assay: NCI DTP tumor cell line screen (SRB), UACC-62
OVCAR-3 (Ovarian Cancer) = assay: NCI DTP tumor cell line screen (SRB), OVCAR-3
OVCAR-8 (Ovarian Cancer) = assay: NCI DTP tumor cell line screen (SRB), OVCAR-8
RXF 393 (Renal Cancer) = assay: NCI DTP tumor cell line screen (SRB), RXF 393
LOX IMVI (Melanoma) = assay: NCI DTP tumor cell line screen (SRB), LOX IMVI
RPMI-8226 (Leukemia) = assay: NCI DTP tumor cell line screen (SRB), RPMI-8226
SK-MEL-28 (Melanoma) = assay: NCI DTP tumor cell line screen (SRB), SK-MEL-28
[3] = system: MDA-MB-435 (Breast Cancer); assay: NCI DTP tumor cell line screen (SRB), MDA-MB-435

Substance: 4-[5-(2-Phenanthrenyl)-3-(trifluoromethyl)-1H-pyrazol-1-yl]-phenyl -guanidine [Compound 71]
- Mean Optical Densities (SR (Leukemia); Log10 Concentration −4.0): 0.287
- Mean Optical Densities (SR (Leukemia); Log10 Concentration −5.0): 0.234
- Mean Optical Densities (SR (Leukemia); Log10 Concentration −6.0): 0.254
- Mean Optical Densities (SR (Leukemia); Log10 Concentration −7.0): 0.583
- Mean Optical Densities (SR (Leukemia); Log10 Concentration −8.0): 0.688
- Mean Optical Densities (M14 (Melanoma); M14, Log10 Concentration −4.0): 0.210
- Mean Optical Densities (M14 (Melanoma); M14, Log10 Concentration −5.0): −0.004
- Mean Optical Densities (M14 (Melanoma); M14, Log10 Concentration −6.0): 0.816
- Mean Optical Densities (M14 (Melanoma); M14, Log10 Concentration −7.0): 0.823
- Mean Optical Densities (M14 (Melanoma); M14, Log10 Concentration −8.0): 0.772
- Mean Optical Densities ([1]; Log10 Concentration −4.0): 0.145
- Mean Optical Densities ([1]; Log10 Concentration −5.0): −0.008
- Mean Optical Densities ([1]; Log10 Concentration −6.0): 0.711
- Mean Optical Densities ([1]; Log10 Concentration −7.0): 0.737
- Mean Optical Densities ([1]; Log10 Concentration −8.0): 0.713
- Mean Optical Densities (A498 (Renal Cancer); A498, Log10 Concentration −4.0): 0.540
- Mean Optical Densities (A498 (Renal Cancer); A498, Log10 Concentration −5.0): 1.903
- Mean Optical Densities (A498 (Renal Cancer); A498, Log10 Concentration −6.0): 1.869
- Mean Optical Densities (A498 (Renal Cancer); A498, Log10 Concentration −7.0): 2.087
- Mean Optical Densities (A498 (Renal Cancer); A498, Log10 Concentration −8.0): 2.413
- Mean Optical Densities (ACHN (Renal Cancer); Log10 Concentration −4.0): 0.291
- Mean Optical Densities (ACHN (Renal Cancer); Log10 Concentration −5.0): 0.034
- Mean Optical Densities (ACHN (Renal Cancer); Log10 Concentration −6.0): 0.964
- Mean Optical Densities (ACHN (Renal Cancer); Log10 Concentration −7.0): 0.902
- Mean Optical Densities (ACHN (Renal Cancer); Log10 Concentration −8.0): 0.898
- Mean Optical Densities (MCF7 (Breast Cancer); Log10 Concentration −4.0): 0.229
- Mean Optical Densities (MCF7 (Breast Cancer); Log10 Concentration −5.0): 0.073
- Mean Optical Densities (MCF7 (Breast Cancer); Log10 Concentration −6.0): 1.507
- Mean Optical Densities (MCF7 (Breast Cancer); Log10 Concentration −7.0): 1.340
- Mean Optical Densities (MCF7 (Breast Cancer); Log10 Concentration −8.0): 1.467
- Mean Optical Densities (K-562 (Leukemia); K-562, Log10 Concentration −4.0): 0.119
- Mean Optical Densities (K-562 (Leukemia); K-562, Log10 Concentration −5.0): 0.126
- Mean Optical Densities (K-562 (Leukemia); K-562, Log10 Concentration −6.0): 0.438
- Mean Optical Densities (K-562 (Leukemia); K-562, Log10 Concentration −7.0): 1.283
- Mean Optical Densities (K-562 (Leukemia); K-562, Log10 Concentration −8.0): 1.338
- Mean Optical Densities (SN12C (Renal Cancer); Log10 Concentration −4.0): 0.224
- Mean Optical Densities (SN12C (Renal Cancer); Log10 Concentration −5.0): −0.014
- Mean Optical Densities (SN12C (Renal Cancer); Log10 Concentration −6.0): 1.045
- Mean Optical Densities (SN12C (Renal Cancer); Log10 Concentration −7.0): 0.998
- Mean Optical Densities (SN12C (Renal Cancer); Log10 Concentration −8.0): 1.050
- Mean Optical Densities ([2]; HOP-92, Log10 Concentration −4.0): 0.767
- Mean Optical Densities ([2]; HOP-92, Log10 Concentration −5.0): 0.089
- Mean Optical Densities ([2]; HOP-92, Log10 Concentration −6.0): 1.361
- Mean Optical Densities ([2]; HOP-92, Log10 Concentration −7.0): 1.541
- Mean Optical Densities ([2]; HOP-92, Log10 Concentration −8.0): 1.567
- Mean Optical Densities (HCT-15 (Colon Cancer); HCT-15, Log10 Concentration −4.0): 0.082
- Mean Optical Densities (HCT-15 (Colon Cancer); HCT-15, Log10 Concentration −5.0): −0.003
- Mean Optical Densities (HCT-15 (Colon Cancer); HCT-15, Log10 Concentration −6.0): 0.797
- Mean Optical Densities (HCT-15 (Colon Cancer); HCT-15, Log10 Concentration −7.0): 0.779
- Mean Optical Densities (HCT-15 (Colon Cancer); HCT-15, Log10 Concentration −8.0): 0.669
- Mean Optical Densities (DU-145 (Prostate Cancer); DU-145, Log10 Concentration −4.0): −0.019
- Mean Optical Densities (DU-145 (Prostate Cancer); DU-145, Log10 Concentration −5.0): −0.074
- Mean Optical Densities (DU-145 (Prostate Cancer); DU-145, Log10 Concentration −6.0): 0.760
- Mean Optical Densities (DU-145 (Prostate Cancer); DU-145, Log10 Concentration −7.0): 0.767
- Mean Optical Densities (DU-145 (Prostate Cancer); DU-145, Log10 Concentration −8.0): 0.694
- Mean Optical Densities (UACC-62 (Melanoma); UACC-62, Log10 Concentration −4.0): 0.272
- Mean Optical Densities (UACC-62 (Melanoma); UACC-62, Log10 Concentration −5.0): −0.041
- Mean Optical Densities (UACC-62 (Melanoma); UACC-62, Log10 Concentration −6.0): 1.301
- Mean Optical Densities (UACC-62 (Melanoma); UACC-62, Log10 Concentration −7.0): 1.338
- Mean Optical Densities (UACC-62 (Melanoma); UACC-62, Log10 Concentration −8.0): 1.323
- Mean Optical Densities (OVCAR-3 (Ovarian Cancer); OVCAR-3, Log10 Concentration −4.0): 0.131
- Mean Optical Densities (OVCAR-3 (Ovarian Cancer); OVCAR-3, Log10 Concentration −5.0): −0.043
- Mean Optical Densities (OVCAR-3 (Ovarian Cancer); OVCAR-3, Log10 Concentration −6.0): 0.770
- Mean Optical Densities (OVCAR-3 (Ovarian Cancer); OVCAR-3, Log10 Concentration −7.0): 0.792
- Mean Optical Densities (OVCAR-3 (Ovarian Cancer); OVCAR-3, Log10 Concentration −8.0): 0.833
- Mean Optical Densities (OVCAR-8 (Ovarian Cancer); OVCAR 8, Log10 Concentration −4.0): 0.126
- Mean Optical Densities (OVCAR-8 (Ovarian Cancer); OVCAR 8, Log10 Concentration −5.0): −0.001
- Mean Optical Densities (OVCAR-8 (Ovarian Cancer); OVCAR 8, Log10 Concentration −6.0): 0.934
- Mean Optical Densities (OVCAR-8 (Ovarian Cancer); OVCAR 8, Log10 Concentration −7.0): 0.946
- Mean Optical Densities (OVCAR-8 (Ovarian Cancer); OVCAR 8, Log10 Concentration −8.0): 0.923
- Mean Optical Densities (RXF 393 (Renal Cancer); RXF 383, Log10 Concentration −4.0): 0.385
- Mean Optical Densities (RXF 393 (Renal Cancer); RXF 383, Log10 Concentration −5.0): 0.156
- Mean Optical Densities (RXF 393 (Renal Cancer); RXF 383, Log10 Concentration −6.0): 0.629
- Mean Optical Densities (RXF 393 (Renal Cancer); RXF 383, Log10 Concentration −7.0): 0.629
- Mean Optical Densities (RXF 393 (Renal Cancer); RXF 383, Log10 Concentration −8.0): 0.582
- Mean Optical Densities (LOX IMVI (Melanoma); Log10 Concentration −4.0): 0.165
- Mean Optical Densities (LOX IMVI (Melanoma); Log10 Concentration −5.0): 0.008
- Mean Optical Densities (LOX IMVI (Melanoma); Log10 Concentration −6.0): 0.935
- Mean Optical Densities (LOX IMVI (Melanoma); Log10 Concentration −8.0): 0.948
- Mean Optical Densities (RPMI-8226 (Leukemia); RPMI-8226, Log10 Concentration −4.0): 0.176
- Mean Optical Densities (RPMI-8226 (Leukemia); RPMI-8226, Log10 Concentration −5.0): 0.016
- Mean Optical Densities (RPMI-8226 (Leukemia); RPMI-8226, Log10 Concentration −6.0): 0.513
- Mean Optical Densities (RPMI-8226 (Leukemia); RPMI-8226, Log10 Concentration −7.0): 0.559
- Mean Optical Densities (RPMI-8226 (Leukemia); RPMI-8226, Log10 Concentration −8.0): 0.536
- Mean Optical Densities (SK-MEL-28 (Melanoma); SK-MEL-28, Log10 Concentration −4.0): 0.248
- Mean Optical Densities (SK-MEL-28 (Melanoma); SK-MEL-28, Log10 Concentration −5.0): −0.002
- Mean Optical Densities (SK-MEL-28 (Melanoma); SK-MEL-28, Log10 Concentration −6.0): 1.367
- Mean Optical Densities (SK-MEL-28 (Melanoma); SK-MEL-28, Log10 Concentration −7.0): 1.408
- Mean Optical Densities (SK-MEL-28 (Melanoma); SK-MEL-28, Log10 Concentration −8.0): 1.439
- Mean Optical Densities ([3]; MDA-MB-435, Log10 Concentration −4.0): 0.295
- Mean Optical Densities ([3]; MDA-MB-435, Log10 Concentration −5.0): −0.073
- Mean Optical Densities ([3]; MDA-MB-435, Log10 Concentration −6.0): 1.444
- Mean Optical Densities ([3]; MDA-MB-435, Log10 Concentration −7.0): 1.382
- Mean Optical Densities ([3]; MDA-MB-435, Log10 Concentration −8.0): 1.376
